Article PMC5216983
No constants are given. Whether binding was seen depends on the method and setting. Binding seen in cells or lysates may run through a third protein. Some entries that bind do so weakly or less than the wild type.

Amino acid sequences for entries named in this document (tags omitted). Residues count along the entry.
UniProt P05622, residues 32-1098: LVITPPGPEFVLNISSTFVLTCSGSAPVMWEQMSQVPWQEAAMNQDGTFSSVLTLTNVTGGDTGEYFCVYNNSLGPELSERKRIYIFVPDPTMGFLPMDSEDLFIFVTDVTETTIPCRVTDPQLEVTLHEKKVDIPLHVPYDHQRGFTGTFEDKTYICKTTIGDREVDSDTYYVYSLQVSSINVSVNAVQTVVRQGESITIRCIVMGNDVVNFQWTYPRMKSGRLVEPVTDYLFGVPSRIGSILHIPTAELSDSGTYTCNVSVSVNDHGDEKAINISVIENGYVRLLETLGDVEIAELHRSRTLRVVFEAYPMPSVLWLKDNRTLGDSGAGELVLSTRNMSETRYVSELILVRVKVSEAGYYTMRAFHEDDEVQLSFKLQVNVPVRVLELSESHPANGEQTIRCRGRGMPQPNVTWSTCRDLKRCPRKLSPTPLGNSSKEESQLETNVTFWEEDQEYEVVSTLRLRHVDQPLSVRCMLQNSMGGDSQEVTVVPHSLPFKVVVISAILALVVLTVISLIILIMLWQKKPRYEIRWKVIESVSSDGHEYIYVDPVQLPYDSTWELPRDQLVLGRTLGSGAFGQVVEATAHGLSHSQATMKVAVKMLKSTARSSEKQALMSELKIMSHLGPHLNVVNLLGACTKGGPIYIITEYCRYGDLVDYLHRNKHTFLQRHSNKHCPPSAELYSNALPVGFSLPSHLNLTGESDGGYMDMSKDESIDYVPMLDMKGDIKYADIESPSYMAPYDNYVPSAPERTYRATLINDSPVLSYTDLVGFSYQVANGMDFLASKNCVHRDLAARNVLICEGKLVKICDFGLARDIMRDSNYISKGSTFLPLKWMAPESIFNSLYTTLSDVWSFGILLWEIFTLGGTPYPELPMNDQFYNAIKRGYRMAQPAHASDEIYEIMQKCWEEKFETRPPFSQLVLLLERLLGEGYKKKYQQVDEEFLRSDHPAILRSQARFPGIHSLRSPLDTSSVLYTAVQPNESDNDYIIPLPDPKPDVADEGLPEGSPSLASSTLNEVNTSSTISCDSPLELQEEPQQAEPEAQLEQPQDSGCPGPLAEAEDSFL
UniProt P34152: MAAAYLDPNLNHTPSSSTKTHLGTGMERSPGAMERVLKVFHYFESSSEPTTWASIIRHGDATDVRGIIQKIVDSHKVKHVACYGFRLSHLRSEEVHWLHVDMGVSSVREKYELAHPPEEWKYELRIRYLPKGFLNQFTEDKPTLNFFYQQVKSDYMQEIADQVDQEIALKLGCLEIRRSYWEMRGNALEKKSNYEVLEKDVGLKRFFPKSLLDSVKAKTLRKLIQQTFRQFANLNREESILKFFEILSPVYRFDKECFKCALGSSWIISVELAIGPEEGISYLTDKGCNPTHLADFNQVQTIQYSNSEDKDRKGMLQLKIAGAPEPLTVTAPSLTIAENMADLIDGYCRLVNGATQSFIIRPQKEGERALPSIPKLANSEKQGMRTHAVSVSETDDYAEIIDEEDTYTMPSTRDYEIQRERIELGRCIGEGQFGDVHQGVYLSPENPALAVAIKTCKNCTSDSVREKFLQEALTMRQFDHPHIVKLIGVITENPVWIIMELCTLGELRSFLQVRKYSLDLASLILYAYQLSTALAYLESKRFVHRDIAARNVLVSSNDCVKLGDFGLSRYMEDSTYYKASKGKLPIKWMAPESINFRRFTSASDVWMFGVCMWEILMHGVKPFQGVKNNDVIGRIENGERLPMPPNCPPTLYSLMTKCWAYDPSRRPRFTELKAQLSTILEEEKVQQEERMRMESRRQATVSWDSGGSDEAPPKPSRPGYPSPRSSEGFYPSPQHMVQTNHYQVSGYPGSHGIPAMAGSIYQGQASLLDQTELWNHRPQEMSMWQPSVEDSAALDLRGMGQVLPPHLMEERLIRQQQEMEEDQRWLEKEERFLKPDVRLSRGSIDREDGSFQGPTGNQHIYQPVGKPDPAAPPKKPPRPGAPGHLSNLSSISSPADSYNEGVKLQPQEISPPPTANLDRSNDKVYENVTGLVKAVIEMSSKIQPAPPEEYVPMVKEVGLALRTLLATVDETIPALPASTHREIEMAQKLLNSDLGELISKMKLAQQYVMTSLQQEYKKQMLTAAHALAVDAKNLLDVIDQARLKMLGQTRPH

Molecular target: PDGFRβ (mouse (endogenous in NIH3T3)) (UniProt P05622)
Test: co-IP; PDGFRβ immunoprecipitated with an anti-PDGFRβ antibody from lysates of NIH3T3^COL1A1/PDGFB cells, control or treated with roneparstat (1 mg/ml, 24 h); western blot with anti-phosphotyrosine, anti-phospho-FAK and anti-FAK antibodies

With “focal adhesion kinase (FAK) (from UniProt P34152 1-1052) (enzyme)” the binding was “binds”.
